This passage reports binding results from US20210269519A1.

Amino acid sequences for entries named in this document (tags omitted). A change or cut given only in a name is not applied to a line headed by its entry. Residues count along the entry.
UniProt P35222: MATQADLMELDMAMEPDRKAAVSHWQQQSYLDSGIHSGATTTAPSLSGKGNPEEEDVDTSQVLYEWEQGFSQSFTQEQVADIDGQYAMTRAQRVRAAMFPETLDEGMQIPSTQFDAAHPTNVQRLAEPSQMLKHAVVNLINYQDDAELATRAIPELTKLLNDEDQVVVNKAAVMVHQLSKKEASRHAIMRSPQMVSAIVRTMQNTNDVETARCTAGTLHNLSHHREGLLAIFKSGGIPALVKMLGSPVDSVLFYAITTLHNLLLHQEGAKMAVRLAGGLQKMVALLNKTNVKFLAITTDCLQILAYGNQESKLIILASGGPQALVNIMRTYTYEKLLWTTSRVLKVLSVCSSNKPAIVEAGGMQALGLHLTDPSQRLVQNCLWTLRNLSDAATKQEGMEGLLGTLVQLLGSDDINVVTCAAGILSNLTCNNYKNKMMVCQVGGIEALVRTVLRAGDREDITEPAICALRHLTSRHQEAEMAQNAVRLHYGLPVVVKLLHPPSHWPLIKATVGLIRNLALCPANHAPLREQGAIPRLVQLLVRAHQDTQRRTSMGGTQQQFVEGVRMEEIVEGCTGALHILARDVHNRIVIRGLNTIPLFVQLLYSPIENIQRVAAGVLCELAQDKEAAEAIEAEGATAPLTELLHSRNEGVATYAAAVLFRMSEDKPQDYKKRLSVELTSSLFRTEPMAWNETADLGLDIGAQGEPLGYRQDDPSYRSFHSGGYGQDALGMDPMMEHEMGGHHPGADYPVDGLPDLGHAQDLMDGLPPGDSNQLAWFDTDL
UniProt P49841: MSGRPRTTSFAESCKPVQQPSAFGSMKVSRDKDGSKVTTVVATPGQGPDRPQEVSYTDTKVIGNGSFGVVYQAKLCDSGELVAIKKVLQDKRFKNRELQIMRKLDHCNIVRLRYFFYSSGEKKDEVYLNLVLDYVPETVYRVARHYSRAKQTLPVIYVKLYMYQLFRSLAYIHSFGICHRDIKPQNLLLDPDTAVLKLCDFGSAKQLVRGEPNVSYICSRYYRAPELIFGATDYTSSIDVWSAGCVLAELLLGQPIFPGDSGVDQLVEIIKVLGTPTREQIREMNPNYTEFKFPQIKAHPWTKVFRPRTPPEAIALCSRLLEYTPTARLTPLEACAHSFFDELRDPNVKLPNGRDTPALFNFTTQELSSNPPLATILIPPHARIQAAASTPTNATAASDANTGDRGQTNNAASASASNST
UniProt Q9UKV5: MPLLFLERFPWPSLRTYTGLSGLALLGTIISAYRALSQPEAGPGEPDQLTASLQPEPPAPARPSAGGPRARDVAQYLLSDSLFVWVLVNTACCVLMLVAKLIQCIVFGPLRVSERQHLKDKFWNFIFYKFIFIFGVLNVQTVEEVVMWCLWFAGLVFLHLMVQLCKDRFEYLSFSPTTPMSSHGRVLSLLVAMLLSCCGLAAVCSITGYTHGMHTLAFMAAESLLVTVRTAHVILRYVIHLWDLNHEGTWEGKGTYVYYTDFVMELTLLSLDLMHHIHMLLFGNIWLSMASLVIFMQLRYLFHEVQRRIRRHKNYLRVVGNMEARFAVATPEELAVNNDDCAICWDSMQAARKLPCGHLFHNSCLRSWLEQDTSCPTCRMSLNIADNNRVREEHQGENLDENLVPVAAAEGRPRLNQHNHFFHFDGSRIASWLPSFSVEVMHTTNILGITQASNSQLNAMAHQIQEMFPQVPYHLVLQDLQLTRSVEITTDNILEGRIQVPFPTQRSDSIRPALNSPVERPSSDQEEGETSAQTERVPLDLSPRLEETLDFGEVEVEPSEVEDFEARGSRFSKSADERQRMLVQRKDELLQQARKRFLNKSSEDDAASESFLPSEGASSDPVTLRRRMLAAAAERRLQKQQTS
UniProt Q9ULT6, residues 56-936: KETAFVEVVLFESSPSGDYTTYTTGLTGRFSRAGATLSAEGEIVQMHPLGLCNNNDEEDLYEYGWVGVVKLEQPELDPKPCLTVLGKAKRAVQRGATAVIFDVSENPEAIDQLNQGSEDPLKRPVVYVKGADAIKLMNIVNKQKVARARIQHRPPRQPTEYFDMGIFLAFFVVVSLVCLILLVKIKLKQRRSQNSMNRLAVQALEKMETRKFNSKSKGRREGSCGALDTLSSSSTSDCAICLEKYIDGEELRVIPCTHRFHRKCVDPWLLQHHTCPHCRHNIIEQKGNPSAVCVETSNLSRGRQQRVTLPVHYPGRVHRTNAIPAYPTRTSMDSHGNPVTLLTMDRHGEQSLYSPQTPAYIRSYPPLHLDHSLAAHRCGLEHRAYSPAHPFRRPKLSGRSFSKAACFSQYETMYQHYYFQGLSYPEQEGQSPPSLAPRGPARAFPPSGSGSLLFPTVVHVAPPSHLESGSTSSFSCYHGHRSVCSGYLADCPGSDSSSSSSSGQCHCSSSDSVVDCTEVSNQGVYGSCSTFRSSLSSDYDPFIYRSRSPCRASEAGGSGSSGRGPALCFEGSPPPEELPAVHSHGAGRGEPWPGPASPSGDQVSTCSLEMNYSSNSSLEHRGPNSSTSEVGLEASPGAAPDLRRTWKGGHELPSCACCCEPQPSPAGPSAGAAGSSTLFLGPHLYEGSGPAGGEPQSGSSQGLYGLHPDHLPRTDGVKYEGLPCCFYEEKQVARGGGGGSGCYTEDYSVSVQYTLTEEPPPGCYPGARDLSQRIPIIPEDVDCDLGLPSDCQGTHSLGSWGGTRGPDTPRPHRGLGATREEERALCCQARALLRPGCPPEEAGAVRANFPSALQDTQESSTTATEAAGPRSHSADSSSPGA

In experiment [1] the target is T1, Flag tagged-human Lmbr1l (limb region 1 like, LMBR1L) (human) (UniProt Q6UX01).
T1 sequence: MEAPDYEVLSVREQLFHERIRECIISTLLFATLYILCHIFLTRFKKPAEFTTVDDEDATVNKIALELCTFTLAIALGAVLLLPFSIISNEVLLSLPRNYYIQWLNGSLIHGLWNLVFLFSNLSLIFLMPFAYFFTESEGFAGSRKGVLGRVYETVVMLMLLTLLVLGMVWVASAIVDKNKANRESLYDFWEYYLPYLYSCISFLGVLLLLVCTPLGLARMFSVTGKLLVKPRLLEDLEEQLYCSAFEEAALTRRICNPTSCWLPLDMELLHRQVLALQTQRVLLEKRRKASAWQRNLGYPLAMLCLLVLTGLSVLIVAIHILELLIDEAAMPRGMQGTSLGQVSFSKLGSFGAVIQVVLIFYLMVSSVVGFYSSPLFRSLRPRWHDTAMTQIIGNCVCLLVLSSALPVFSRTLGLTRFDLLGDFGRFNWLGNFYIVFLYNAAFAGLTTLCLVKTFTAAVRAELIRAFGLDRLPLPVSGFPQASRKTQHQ
The experiment can be described thus: anti-FLAG co-IP from HEK293T lysate + LC-MS/MS, vs empty vector.

Experiment [2] deals with T1, Flag tagged-human Lmbr1l (limb region 1 like, LMBR1L) (human). The experiment is described as follows: anti-FLAG co-IP from HEK293T lysate + LC-MS/MS.
Experiment [3] addresses FLAG-tagged β-catenin (Homo sapiens (Human)) (UniProt P35222). The experiment can be described thus: co-IP (anti-FLAG M2 agarose) from co-transfected HEK293T cells, anti-HA immunoblot (FIG. 26A). Background: Immunoblotting shows a protein as a band on a membrane.

Results are given in words; binding and its absence hold for the method and conditions named. Binding seen in cells or lysates may run through a third protein. Some entries that bind do so weakly or less than the wild type. For some assays here: Tags and fused reporters may be left off the sequences shown.

In the case of “GSK3β (GSK3B) (from UniProt P49841 1-420) (enzyme)”, the binding result in experiment [1] and in experiment [2] was “binds” each time.

“HA-tagged GP78 (from UniProt Q9UKV5 1-643) (enzyme)”: the binding entry in experiment [3] was “binds”.

For the substance “zinc and ring finger 3 (ZNRF3) (from UniProt Q9ULT6 56-936) (enzyme)”, the binding result in experiment [1] and in experiment [2] was “binds” throughout.
